# Primary screen of a compound library

Sequences of proteins named here, by UniProt entry; tags and fusion partners are left off.
UniProt I6X8D2, whole entry: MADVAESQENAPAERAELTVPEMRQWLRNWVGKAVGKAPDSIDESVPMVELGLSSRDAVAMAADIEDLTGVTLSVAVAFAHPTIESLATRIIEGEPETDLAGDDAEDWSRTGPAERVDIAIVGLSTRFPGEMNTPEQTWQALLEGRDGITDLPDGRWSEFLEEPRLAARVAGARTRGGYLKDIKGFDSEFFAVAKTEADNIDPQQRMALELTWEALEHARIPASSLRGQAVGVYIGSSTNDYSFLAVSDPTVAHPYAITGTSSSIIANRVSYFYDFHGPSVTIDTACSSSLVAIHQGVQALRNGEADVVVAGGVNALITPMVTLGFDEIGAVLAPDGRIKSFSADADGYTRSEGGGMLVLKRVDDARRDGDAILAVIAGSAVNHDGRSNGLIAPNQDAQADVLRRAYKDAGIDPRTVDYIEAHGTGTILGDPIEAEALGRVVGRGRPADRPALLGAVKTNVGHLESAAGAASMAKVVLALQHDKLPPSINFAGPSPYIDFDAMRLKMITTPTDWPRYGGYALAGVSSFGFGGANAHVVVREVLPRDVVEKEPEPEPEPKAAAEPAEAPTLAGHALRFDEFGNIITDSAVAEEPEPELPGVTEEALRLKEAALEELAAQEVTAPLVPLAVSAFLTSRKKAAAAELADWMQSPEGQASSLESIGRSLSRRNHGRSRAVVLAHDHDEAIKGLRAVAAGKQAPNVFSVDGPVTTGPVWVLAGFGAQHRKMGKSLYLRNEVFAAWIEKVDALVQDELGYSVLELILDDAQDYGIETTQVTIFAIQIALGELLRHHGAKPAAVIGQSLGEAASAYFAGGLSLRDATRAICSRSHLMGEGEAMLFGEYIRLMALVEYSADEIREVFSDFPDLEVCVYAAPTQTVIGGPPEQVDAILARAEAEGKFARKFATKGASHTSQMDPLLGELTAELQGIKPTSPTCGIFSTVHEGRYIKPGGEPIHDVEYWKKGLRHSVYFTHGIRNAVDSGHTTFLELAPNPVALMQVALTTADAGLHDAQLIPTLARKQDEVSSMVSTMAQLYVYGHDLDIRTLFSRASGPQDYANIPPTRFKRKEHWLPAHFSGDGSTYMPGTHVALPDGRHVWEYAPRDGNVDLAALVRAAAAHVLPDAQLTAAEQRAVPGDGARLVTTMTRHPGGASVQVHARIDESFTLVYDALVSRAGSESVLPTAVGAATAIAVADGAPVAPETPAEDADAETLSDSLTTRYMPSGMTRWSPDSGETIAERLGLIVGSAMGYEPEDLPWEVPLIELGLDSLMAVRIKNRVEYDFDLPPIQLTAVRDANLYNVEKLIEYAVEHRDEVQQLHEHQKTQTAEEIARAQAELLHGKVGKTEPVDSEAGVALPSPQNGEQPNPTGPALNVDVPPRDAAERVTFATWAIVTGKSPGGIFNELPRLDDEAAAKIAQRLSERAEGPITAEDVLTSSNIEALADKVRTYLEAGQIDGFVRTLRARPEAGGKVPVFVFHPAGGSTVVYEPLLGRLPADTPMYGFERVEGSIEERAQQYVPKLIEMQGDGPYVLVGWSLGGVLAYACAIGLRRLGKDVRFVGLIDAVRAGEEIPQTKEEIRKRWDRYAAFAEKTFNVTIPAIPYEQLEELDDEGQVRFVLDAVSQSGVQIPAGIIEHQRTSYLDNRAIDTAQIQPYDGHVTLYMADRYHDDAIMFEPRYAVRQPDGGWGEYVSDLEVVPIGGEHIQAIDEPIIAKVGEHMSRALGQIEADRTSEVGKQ

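Polyketide synthase Pks13, Mycobacterium tuberculosis (UniProt I6X8D2). Enzyme assay of the thioesterase domain of polyketide synthase 13; the read-out is not stated. Compounds at 30 µM. Higher reads as stronger inhibition (inferred from which compounds were picked for retests). About 67,000 compounds were tested under these conditions; 0.46% (about 300) showed 50% or more at least once.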

Each number is a percent effect as filed. The controls that fix the scale are not given in the record; negative values are as filed. Compounds were drawn at random from those tested, without regard to their results.

{"compound": "O=C(NCCc1ccc(Cl)cc1)c1coc(CN2CCOCC2)c1", "Percent Effect": -19.58}
{"compound": "Nc1nccnc1C1CN(C(=O)c2ccc3c(c2)OCO3)CCO1", "stereo": "stereo unspecified", "Percent Effect": 7.011}
{"compound": "Cc1ncsc1CN1C[C@@H](OCC2CC2)[C@H]2OCCC[C@H]21", "Percent Effect": -10.6}
{"compound": "Cc1nn(C)c(C)c1C1CCCN1C(=O)c1cnccn1", "stereo": "stereo unspecified", "Percent Effect": -17.75}
{"compound": "CSc1nc(C2CC2)nc(C)c1C(=O)NCc1ccco1", "Percent Effect": -12.2}
{"compound": "O=C(C[C@@H]1COC[C@H]2CN(Cc3ccccc3)C[C@@H]12)N1CCCC1", "Percent Effect": -1.991}
{"compound": "Cc1ccccc1N1CCN(C(=O)CC(C)C)CC1", "Percent Effect": 7.871}
{"compound": "CCC(O)CN(Cc1cccc(C(=O)N(C)C)c1)c1ccccc1", "stereo": "stereo unspecified", "Percent Effect": -36.01}
{"compound": "CCCc1nc(C)c(C(=O)NC2CCN(C3CC3)C2)s1", "stereo": "stereo unspecified", "Percent Effect": -7.179}
{"compound": "c1ccc2c(c1)CC(N1CCCN(Cc3cccc4nonc34)CC1)C2", "Percent Effect": 3.463}
{"compound": "Cc1cccc(Nc2cc(C3CCCN(CC(N)=O)C3)ccn2)n1", "stereo": "stereo unspecified", "Percent Effect": -20.29}
{"compound": "CCSc1cc(C(=O)NCCNC(=O)Cc2ccccc2)ccn1", "Percent Effect": -8.383}
{"compound": "COc1c(CNC(c2cccc(F)c2)c2nccn2C)c(C)nn1C", "stereo": "stereo unspecified", "Percent Effect": -9.292}
{"compound": "COC(=O)c1ccc(NC2CCN(CC(F)(F)F)C2=O)cc1C", "stereo": "stereo unspecified", "Percent Effect": 62.29}
{"compound": "CC[C@@]1(O)CCN(C(=O)c2ccc(CN3CCCCCC3)cc2)C[C@H]1O", "Percent Effect": -27.68}
{"compound": "COCCN1CCO[C@@H]2CN(C(=O)Cc3cccc(F)c3)CC[C@@H]2C1", "Percent Effect": -36.32}
{"compound": "O=C(c1scc2c1OCCO2)N1CCN(Cc2cccc(F)c2)CC1", "Percent Effect": -9.561}
{"compound": "O=C1CC2(CCN(C(=O)c3ccccn3)CC2)Oc2c(Cl)cc(Cl)cc21", "Percent Effect": 19.59}
{"compound": "Cc1nn(C)c2ncnc(NCc3nncn3C3CCCCC3)c12", "Percent Effect": -5.276}
{"compound": "Cc1cc(C(=O)N2CCCCC2C)ccc1NC(=O)N1CCOCC1", "stereo": "stereo unspecified", "Percent Effect": -3.552}
{"compound": "Cc1ccc(N2CC[C@@H](NC(=O)c3cnccn3)[C@H](O)C2)nn1", "Percent Effect": -0.04023}
{"compound": "COc1cccc(NC(=O)c2cc3c([nH]c2=O)CCCC3=O)c1", "Percent Effect": 5.847}
{"compound": "Cc1ccc(CNC(=O)NCc2nccn2C)c(OC(C)(C)C)c1", "Percent Effect": 2.073}
{"compound": "C[C@H]1C[C@@H]2CCN(C(=O)c3cccn3C)C[C@H]2O1", "Percent Effect": -23.44}
{"compound": "Cc1ccc(C(=O)N2CCc3nc4c(C)csc4c(=O)n3CC2)cn1", "Percent Effect": 18.77}
{"compound": "CN(C)C[C@@H]1CN(C(=O)Cc2ccc3ccccc3c2)C[C@@H]1CO", "Percent Effect": 1.172}
{"compound": "Fc1ccc2c(c1)C1(CCNCC1)CC2NC1CC1", "stereo": "stereo unspecified", "Percent Effect": -32}
{"compound": "CN1C[C@@H]2COC[C@]2(C(=O)NCCc2cccs2)C1", "Percent Effect": 5.976}
{"compound": "COc1ccc2nc(C[C@@H]3C[C@@H](C(C)C)[C@H](CN)C=C3C)[nH]c2n1", "Percent Effect": 56.16}
{"compound": "CSc1ncccc1C(=O)NCC(c1ccco1)N(C)C", "stereo": "stereo unspecified", "Percent Effect": -14.12}
{"compound": "Cc1nn(CCC(=O)NC2CCCOC2)c(C)c1C", "stereo": "stereo unspecified", "Percent Effect": 7.96}
{"compound": "CCN(CC)S(=O)(=O)CC(=O)N1CCc2ccc(F)cc21", "Percent Effect": -38.14}
{"compound": "Cc1nc2c(C#N)cnn2c(C)c1CCC(=O)N(C)C(C)C(C)C", "stereo": "stereo unspecified", "Percent Effect": -8.35}

Measurements from “University of Dundee, Small-Polar-MMV Screening Library” (2021), ChEMBL document CHEMBL3988442.